We go through 4 substances from paper PMC6540907 (Chemical Science, 2019).

Series [1] can be described thus: general procedure: Fmoc solid-phase peptide synthesis; Rapp S RAM resin; HATU (folate carriers); TBTU (LHRH derivatives). The note with it: whole synthesis, scale 100 µmol, TFA salt.
Series [2] in a line: general procedure: Fmoc solid-phase peptide synthesis; 2-chlorotrityl resin (Rapp Polymere, 1.21 mmol/g) for folate carriers; Rink amide resin for LHRH derivatives; HATU (folate carriers); TBTU (LHRH derivatives). The note with it: for conjugation yield: conjugation step, TFA salt.

On to D-Orn-N3-Gose, for which the isolated mass in series [1] is reported as 20 mg.

In the case of L-Orn-LHRH-16R-Aminoratjadone, the conjugation yield in series [2] is given as 70%.

In the case of “(7S,10S,13S,16S)-16-((((9H-fluoren-9-yl)methoxy)carbonyl)amino)-1-(4-azidophenyl)-10,13-bis(carboxymethyl)-7-(methoxycarbonyl)-1,9,12,15-tetraoxo-2,8,11,14-tetraazaoctadecan-18-oic acid”, the step yield in series [2] (coupling step) is reported as 52%.

“L-Orn-LHRH-Val-Cit-pABA-16R-Aminoratjadone”: the conjugation yield in series [2] stood at 45%.
